From publication PMC6125387
No constants are given. Whether binding was seen depends on the method and setting. In cells and extracts the contact can be indirect. Some binding calls cover weakened binding; strength is not graded here. For some assays here: Tags and fused reporters may be left off the sequences shown. Values belong to the binder of their own block, whether it stands above or below them.

Assays:
[1] = biological target: CRAF, epitope-tagged form (UniProt P04049); assay: co-IP; MCF-7 cells transfected with epitope-tagged PTPRκ and CRAF (1 μg each); precipitated with anti-FLAG, or pre-immune serum as control; 20 mM HEPES pH 8, 2 mM MgCl2, 2 mM EGTA, 150 mM NaCl, 2.5 mM CHAPS; detected by immunoblot
[2] = biological target: CRAF, endogenous (human (endogenous in MCF-7)) (UniProt P04049); assay: co-IP; endogenous proteins in MCF-7 cells; control precipitations with pre-immune serum or beads only; 20 mM HEPES pH 8, 2 mM MgCl2, 2 mM EGTA, 150 mM NaCl, 2.5 mM CHAPS; detected by immunoblot

binding [1]: binds
B1: Protein Tyrosine Phosphatase receptor kappa (PTPRκ), epitope-tagged form (protein, UniProt Q15262 27-1439)
chain: AQGQFSAGGCTFDDGPGACDYHQDLYDDFEWVHVSAQEPHYLPPEMPQGSYMIVDSSDHDPGEKARLQLPTMKENDTHCIDFSYLLYSQKGLNPGTLNILVRVNKGPLANPIWNVTGFTGRDWLRAELAVSTFWPNEYQVIFEAEVSGGRSGYIAIDDIQVLSYPCDKSPHFLRLGDVEVNAGQNATFQCIATGRDAVHNKLWLQRRNGEDIPVAQTKNINHRRFAASFRLQEVTKTDQDLYRCVTQSERGSGVSNFAQLIVREPPRPIAPPQLLGVGPTYLLIQLNANSIIGDGPIILKEVEYRMTSGSWTETHAVNAPTYKLWHLDPDTEYEIRVLLTRPGEGGTGLPGPPLITRTKCAEPMRTPKTLKIAEIQARRIAVDWESLGYNITRCHTFNVTICYHYFRGHNESKADCLDMDPKAPQHVVNHLPPYTNVSLKMILTNPEGRKESEETIIQTDEDVPGPVPVKSLQGTSFENKIFLNWKEPLDPNGIITQYEISYSSIRSFDPAVPVAGPPQTVSNLWNSTHHVFMHLHPGTTYQFFIRASTVKGFGPATAINVTTNISAPTLPDYEGVDASLNETATTITVLLRPAQAKGAPISAYQIVVEELHPHRTKREAGAMECYQVPVTYQNAMSGGAPYYFAAELPPGNLPEPAPFTVGDNRTYQGFWNPPLAPRKGYNIYFQAMSSVEKETKTQCVRIATKAATEEPEVIPDPAKQTDRVVKIAGISAGILVFILLLLVVILIVKKSKLAKKRKDAMGNTRQEMTHMVNAMDRSYADQSTLHAEDPLSITFMDQHNFSPRYENHSATAESSRLLDVPRYLCEGTESPYQTGQLHPAIRVADLLQHINLMKTSDSYGFKEEYESFFEGQSASWDVAKKDQNRAKNRYGNIIAYDHSRVILQPVEDDPSSDYINANYIDGYQRPSHYIATQGPVHETVYDFWRMIWQEQSACIVMVTNLVEVGRVKCYKYWPDDTEVYGDFKVTCVEMEPLAEYVVRTFTLERRGYNEIREVKQFHFTGWPDHGVPYHATGLLSFIRRVKLSNPPSAGPIVVHCSAGAGRTGCYIVIDIMLDMAEREGVVDIYNCVKALRSRRINMVQTEEQYIFIHDAILEACLCGETAIPVCEFKAAYFDMIRIDSQTNSSHLKDEFQTLNSVTPRLQAEDCSIACLPRNHDKNRFMDMLPPDRCLPFLITIDGESSNYINAALMDSYRQPAAFIVTQYPLPNTVKDFWRLVYDYGCTSIVMLNEVDLSQGCPQYWPEEGMLRYGPIQVECMSCSMDCDVINRIFRICNLTRPQEGYLMVQQFQYLGWASHREVPGSKRSFLKLILQVEKWQEECEEGEGRTIIHCLNGGGRSGMFCAIGIVVEMVKRQNVVDVFHAVKTLRNSKPNMVEAPEQYRFCYDVALEYLESS

binding [2]: binds
B2: Protein Tyrosine Phosphatase receptor kappa (PTPRκ), endogenous (protein, UniProt Q15262 27-1439)
chain: B1 chain
